This note sets out measurements from patent US20100138945A1 (FEMTA PHARMACEUTICALS, published 2010).

Results are given in words; binding and its absence hold for the method and conditions named. A result given as binding can be weak or reduced; the word gives no strength.

In assay [1] the target is monkey IL-6 (monkey). The assay is described as follows: competition ELISA on captured monkey IL-6; competitor of biotinylated 001. In general terms: ELISA stands for enzyme-linked immunosorbent assay.
Assay [2] has as its target monkey IL-6 (monkey). Nature of the assay: competition ELISA on captured monkey IL-6: unlabelled antibody added with biotinylated 001 (BA001), streptavidin-HRP.

B1: Anti-IL-6 Ab BA399 (antibody, V domains shown)
VH: QVQLVQSGAEVKKPGASVKVSCKASGFTFSSFAMSWIRQSPSRGLEWLGEISSGGSYTYYPDTVTGRFTISRDNAKNSLYLQMNSLRAEDTAVYYCARGLWGYYALDYWGQG
VL: AIQLTQSPSSLSASVGDRVTITCSASSSVSYMYWYQQKPGQAPRLLIYDTSNLASGIPPRFSGSGYGTDFTLTINNIESEDAAYYFCQQWSGYPYTFGQG
Consider B1, for which the binding entry with monkey IL-6 (monkey) [1] and with monkey IL-6 (monkey) [2] was “binds” throughout.

B2: Clone BA399-02 (antibody, V domains shown)
VH: QVQLVQSGAEVKKPGASVKVSCKASGFTFSSFSMSWIRQSPSRGLEWLGEISSGGSYTYYPDTKTGRFTISRDNAKNSLYLQMNSLRAEDTAVYYCARGQWGYYALDYWGQG
VL: AIQLTQSPSSLSASVGDRVTITCYASSSVSYMYWYQQKPGQAPRLLIYDTSNLASGIPPRFSGSGYGTDFTLTINNIESEDAAYYFCQQWSGYPYTFGQG
notes: also called BA399-2; BA399 clone #2
Consider B2, for which the binding result with monkey IL-6 (monkey) [1] and with monkey IL-6 (monkey) [2] was “binds” throughout.

B3: Clone BA399-09 (antibody, V domains shown)
VH: QVQLVQSGAEVKKPGASVKVSCKASGFTFSSFSMSWIRQSPSRGLEWLGEISSGGSYHYYPDTVTGRFTISRDNAKNSLYLQMNSLRAEDTAVYYCARGQWGYYALDYWGQG
VL: AIQLTQSPSSLSASVGDRVTITCYASSSVSYMYWYQQKPGQAPRLLIYDTLNLASGIPPRFSGSGYGTDFTLTINNIESEDAAYYFCQQWSGYPYTFGQG
notes: also called BA399-9; BA399 clone #9
As for B3, the binding result with monkey IL-6 (monkey) [1] and with monkey IL-6 (monkey) [2] was “binds” each time.
